Data on 1 compound can be found in PubChem BioAssay AID220 (DTP/NCI, 2004).

The test system of this test is CD8F1 mice, subcutaneous mammary adenocarcinoma, T/C%. Briefly: NCI In Vivo Anticancer Drug Screen. Data for tumor model Mammary Adenocarcinoma CD8F1 (subcutaneous) in CD8F1. The note with it: T/C endpoint: median tumor weight (est.), schedule: Q07DX005 (ip), vehicle: Klucel (hydroxypropylcellulose) (HPC), evaluated on day 30, higher T/C = larger tumour. The protocol:
The antitumor activity of compounds was measured in mice bearing transplantable tumors. Survival or tumor size were measured and the results are expressed as the measurement made in the treated group (T) divided by the measurement made in the vehicle treated control group (C). The tumor model used in this assay is Mammary Adenocarcinoma CD8F1 (subcutaneous) in CD8F1

The list does not hold the whole screen: its compounds were picked by chemical class. Other doses and runs of a compound may be missing. T/C is the treated group as % of the vehicle group. Schedule codes are those of the source, read here as Q, the interval in days (D) or hours (H), X, the number of doses.

For `CC(=O)OC(SC(OC(C)=O)C(Cl)(Cl)Cl)C(Cl)(Cl)Cl` (stereo unspecified), the T/C runs as follows: (dose: 12.5 mg/kg/injection) 78 % of control; (dose: 25.0 mg/kg/injection) 99 % of control; (dose: 50.0 mg/kg/injection) 74 % of control; (dose: 100.0 mg/kg/injection) 97 % of control; (dose: 200.0 mg/kg/injection) 97 % of control; (dose: 400.0 mg/kg/injection) 98 % of control.
